Laboratory results from US20260275395A1, “ENZYMATIC CONVERSION OF D-XYLOSE INTO D-RIBOSE AND D-RIBULOSE-5-PHOSPHATE” (priority 2022, published 2026).

Tested on: BpRpiB (D-ribose-5-phosphate isomerase)
Assay: Optimal reaction temperature and pH of BpRpiB
Type: biochemical, Bacteroides plebeius

B1: BpRpiB: D-ribose-5-phosphate isomerase derived from Bacteroides plebeius, SEQ ID NO: 5 (protein)
chain: MKTIGLASDHAGFELKQYVKKWLEAKGWEYKDFGTYTTDSCDYPDFAHPLALAVENGECYPGIAICGSGEGIGITLNKHQGIRAALCWIPEIAHLARQHNNANVLVMPGRFIDEAMADKIMTEFFTTDFEGGRHQARIDKIPVR
modifications: BpRpiB
Sodium phosphate buffer
  pH of highest activity: 7.0
Standard reaction conditions, various temperatures
  Temperature of highest activity: 50 °C
